# Test results reported in article PMC7256045.
# These are yes or no findings as the source states them, for the method shown. In cells and extracts the contact can be indirect. Some results given as binding are weak or reduced against the parent protein; the word gives no strength. Tags and fused reporters may be left off the sequences shown.
# B1: SIRT4 overexpressed in HEK293T cells (enzyme, UniProt Q9Y6E7 29-314)
# chain: IGLFVPASPPLDPEKVKELQRFITLSKRLLVMTGAGISTESGIPDYRSEKVGLYARTDRRPIQHGDFVRSAPIRQRYWARNFVGWPQFSSHQPNPAHWALSTWEKLGKLYWLVTQNVDALHTKAGSRRLTELHGCMDRVLCLDCGEQTPRGVLQERFQVLNPTWSAEAHGLAPDGDVFLSEEQVRSFQVPTCVQCGGHLKPDVVFFGDTVNPDKVDFVHKRVKEADSLLVVGSSLQVYSGYRFILTAWEKKLPIAILNIGPTRSDDLACLKLNSRCGELLPLIDPC
# Target: T1, BCAT2 overexpressed in HEK293T cells (Flag-BCAT2) (human) (UniProt O15382)
# T1 sequence: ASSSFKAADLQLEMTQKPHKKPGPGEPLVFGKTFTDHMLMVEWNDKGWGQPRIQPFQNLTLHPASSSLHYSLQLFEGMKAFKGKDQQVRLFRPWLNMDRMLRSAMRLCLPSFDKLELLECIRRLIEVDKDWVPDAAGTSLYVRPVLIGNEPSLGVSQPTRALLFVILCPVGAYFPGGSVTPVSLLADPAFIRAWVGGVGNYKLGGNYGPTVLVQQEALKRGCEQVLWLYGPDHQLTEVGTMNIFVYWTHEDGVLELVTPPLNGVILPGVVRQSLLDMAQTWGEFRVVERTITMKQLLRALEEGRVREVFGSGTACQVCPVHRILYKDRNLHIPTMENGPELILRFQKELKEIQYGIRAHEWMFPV
# Assay: co-IP; SIRT1-7 overexpressed individually with BCAT2 in HEK293T cells; lysis in 0.3% Nonidet P40 buffer (150 mM NaCl, 50 mM Tris-HCl pH 7.5); Flag beads, 4 °C, 3 h; western blot
binder,measurement,value
B1,binding,binds
